The reference is the same well before dosing, and untreated signal decays as well.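 Labels refer to human fibroblasts, largely primary: uterine (C12385, HUF), lung (H6013), bone (Hs27A), adrenal (HADF), skin (WS1), plus mammary HMF and breast cancer-associated Hs343T. Cancer lines are basal-like or mesenchymal-like triple-negative breast cancer. The paper counts as hits responses shifting over 3x the replicate standard deviation. The tissue of the other fibroblasts is not given here.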
System: BT20
Test: relative JC-1 red fluorescence (viability) vs pre-drug, coculture with fibroblast (fraction); higher = more viable cancer cells
Protocol: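 JC-1 labelled TNBC cells cocultured 1:1 (1,500 cells each) with CellTrace Violet stained primary or stromal fibroblasts in 384-well plates in FluoroBrite medium, treated with one of 42 anticancer drugs at 0.1, 1, 10 or 100 uM. JC-1 red fluorescence (mitochondrial integrity in cancer cells only) was read by plate reader every 8 h for 72 h. Values are normalised to each well's pre-drug value. The stock of one drug was tenfold lower, so its dose labels may be too high.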

O=c1[nH]cc(F)c(=O)[nH]1 [Fluorouracil]
relative JC-1 red fluorescence
Conditions	8 h	16 h	24 h	32 h	40 h	48 h	56 h	64 h	72 h
0.1 µM, coculture fibroblast: C12385	0.904	0.835	0.7248	0.663	0.59772	0.563	0.535	0.509	0.494
0.1 µM, coculture fibroblast: H6013	0.92	0.911	0.875	0.84	0.791	0.769	0.76	0.7313	0.699
0.1 µM, coculture fibroblast: H6019	0.84131	0.7425	0.72	0.658	0.595	0.576	0.542	0.515	0.496
0.1 µM, coculture fibroblast: H6076	0.933	0.8435	0.775	0.745	0.722	0.708	0.7082	0.7049	0.6881
0.1 µM, coculture fibroblast: H6231	0.759	0.938	0.785	0.7154	0.673	0.6248	0.583	0.553	0.536
0.1 µM, coculture fibroblast: HADF	0.961	0.908	0.838	0.808	0.774	0.734	0.716	0.693	0.656
0.1 µM, coculture fibroblast: HCFa	0.957	0.859	0.823	0.776	0.723	0.688	0.66	0.632	0.6
0.1 µM, coculture fibroblast: HCPF	0.79	0.908	0.838	0.794	0.747	0.699	0.654	0.646	0.607
0.1 µM, coculture fibroblast: HHSteC	0.975	0.912	0.818	0.853	0.7339	0.727	0.786	0.734	0.753
0.1 µM, coculture fibroblast: HMF	0.896	0.847	0.7454	0.684	0.648	0.603	0.566	0.534	0.504
0.1 µM, coculture fibroblast: HPFa	0.922	0.927	0.9206	0.862	0.831	0.804	0.787	0.776	0.749
0.1 µM, coculture fibroblast: HUF	0.928	0.804	0.7767	0.6943	0.642	0.606	0.58	0.564	0.55
0.1 µM, coculture fibroblast: Hs5	0.852	0.8734	0.806	0.766	0.717	0.68	0.646	0.615	0.587
0.1 µM, coculture fibroblast: Hs27A	0.9105	0.9636	0.894	0.853	0.806	0.787	0.771	0.749	0.695
0.1 µM, coculture fibroblast: Hs343T	0.7772	0.8917	0.779	0.698	0.651	0.596	0.541	0.519	0.483
0.1 µM, coculture fibroblast: WS1	0.85575	0.757	0.687	0.611	0.551	0.522	0.486	0.459	0.448
1 µM, coculture fibroblast: C12385	0.909	0.8335	0.777	0.716	0.648	0.613	0.583	0.565	0.551
1 µM, coculture fibroblast: H6013	0.929	0.856	0.837	0.789	0.744	0.726	0.729	0.708	0.695
1 µM, coculture fibroblast: H6019	0.859	0.751	0.732	0.661	0.615	0.599	0.564	0.541	0.52
1 µM, coculture fibroblast: H6076	0.901	0.823	0.752	0.72	0.698	0.673	0.671	0.67	0.659
1 µM, coculture fibroblast: H6231	0.833	0.921	0.782	0.706	0.645	0.591	0.551	0.528	0.497
1 µM, coculture fibroblast: HADF	0.9605	0.845	0.841	0.78	0.749	0.71	0.688	0.674	0.642
1 µM, coculture fibroblast: HCFa	0.8732	0.812	0.769	0.704	0.654	0.621	0.591	0.563	0.524
1 µM, coculture fibroblast: HCPF	0.987	0.83	0.777	0.717	0.685	0.648	0.604	0.5727	0.536
1 µM, coculture fibroblast: HHSteC	0.892	0.818	0.81	0.729	0.704	0.676	0.661	0.644	0.613
1 µM, coculture fibroblast: HMF	0.972	0.808	0.748	0.697	0.656	0.617	0.59	0.56	0.533
1 µM, coculture fibroblast: HPFa	0.9296	0.854	0.85	0.756	0.723	0.672	0.65	0.61	0.551
1 µM, coculture fibroblast: HUF	0.929	0.847	0.851	0.775	0.731	0.688	0.672	0.649	0.628
1 µM, coculture fibroblast: Hs5	0.9926	0.86891	0.7967	0.7417	0.704	0.666	0.626	0.595	0.569
1 µM, coculture fibroblast: Hs27A	0.897	0.931	0.822	0.829	0.836	0.763	0.75	0.841	0.797
1 µM, coculture fibroblast: Hs343T	0.905	0.832	0.7432	0.673	0.626	0.58	0.539	0.514	0.488
1 µM, coculture fibroblast: WS1	0.8555	0.753	0.713	0.651	0.608	0.584	0.558	0.532	0.528
10 µM, coculture fibroblast: C12385	0.909	0.832	0.774	0.716	0.663	0.621	0.601	0.576	0.554
10 µM, coculture fibroblast: H6013	0.9853	0.889	0.8479	0.8246	0.793	0.774	0.771	0.757	0.745
10 µM, coculture fibroblast: H6019	0.873	0.824	0.836	0.801	0.785	0.78	0.764	0.755	0.742
10 µM, coculture fibroblast: H6076	0.7454	0.9405	0.8751	0.84935	0.815	0.791	0.775	0.762	0.748
10 µM, coculture fibroblast: H6231	0.773	0.96	0.869	0.824	0.787	0.747	0.708	0.68	0.644
10 µM, coculture fibroblast: HADF	0.865	0.927	0.874	0.847	0.782	0.732	0.694	0.666	0.622
10 µM, coculture fibroblast: HCFa	0.9592	0.832	0.7657	0.7165	0.664	0.6292	0.599	0.579	0.545
10 µM, coculture fibroblast: HCPF	0.913	0.947	0.875	0.831	0.78109	0.7396	0.699	0.678	0.632
10 µM, coculture fibroblast: HHSteC	0.965	0.904	0.883	0.817	0.764	0.734	0.704	0.691	0.658
10 µM, coculture fibroblast: HMF	0.9	0.872	0.765	0.704	0.6408	0.595	0.55	0.515	0.475
10 µM, coculture fibroblast: HPFa	0.9323	0.85261	0.822	0.743	0.7074	0.6521	0.6319	0.60739	0.5725
10 µM, coculture fibroblast: HUF	0.896	0.789	0.763	0.6816	0.632	0.593	0.5722	0.566	0.542
10 µM, coculture fibroblast: Hs5	0.812	0.93	0.868	0.833	0.788	0.753	0.719	0.689	0.679
10 µM, coculture fibroblast: Hs27A	0.747	0.757	0.912	0.906	0.8494	0.837	0.8078	0.7907	0.7376
10 µM, coculture fibroblast: Hs343T	0.85272	0.9241	0.7811	0.716	0.654	0.5982	0.536	0.508	0.457
10 µM, coculture fibroblast: WS1	0.88	0.806	0.731	0.66	0.6	0.569	0.539	0.504	0.483
100 µM, coculture fibroblast: C12385	0.87	0.811	0.801	0.746	0.691	0.665	0.63	0.61	0.591
100 µM, coculture fibroblast: H6013	0.925	0.882	0.834	0.8003	0.768	0.756	0.752	0.727	0.707
100 µM, coculture fibroblast: H6019	0.8431	0.801	0.78562	0.723	0.68	0.6598	0.631	0.60824	0.5945
100 µM, coculture fibroblast: H6076	0.924	0.815	0.765	0.7433	0.735	0.7251	0.727	0.731	0.731
100 µM, coculture fibroblast: H6231	0.843	0.881	0.772	0.727	0.682	0.64	0.613	0.585	0.564
100 µM, coculture fibroblast: HADF	0.9563	0.926	0.858	0.842	0.829	0.787	0.748	0.719	0.678
100 µM, coculture fibroblast: HCFa	0.914	0.84	0.799	0.736	0.695	0.67	0.646	0.622	0.587
100 µM, coculture fibroblast: HCPF	0.9	0.885	0.811	0.761	0.724	0.677	0.642	0.606	0.582
100 µM, coculture fibroblast: HHSteC	0.8907	0.811	0.775	0.7006	0.65924	0.623	0.60203	0.5791	0.5599
100 µM, coculture fibroblast: HMF	0.845	0.9021	0.804	0.73	0.692	0.643	0.614	0.592	0.553
100 µM, coculture fibroblast: HPFa	0.9437	0.859	0.857	0.782	0.758	0.718	0.699	0.677	0.638
100 µM, coculture fibroblast: HUF	0.8859	0.7953	0.763	0.691	0.634	0.594	0.58	0.559	0.54
100 µM, coculture fibroblast: Hs5	0.861	0.865	0.804	0.7418	0.707	0.672	0.644	0.623	0.598
100 µM, coculture fibroblast: Hs27A	0.881	0.764	0.819	0.858	0.788	0.817	0.784	0.893	0.847
100 µM, coculture fibroblast: Hs343T	0.888	0.841	0.746	0.681	0.632	0.583	0.538	0.511	0.48
100 µM, coculture fibroblast: WS1	0.8309	0.781	0.737	0.673	0.616	0.589	0.559	0.516	0.493

Source: the supplement of paper PMC6078165
